Measurements from patent publication US20220090143.
Where a protein sequence is shown, tags need not be part of it.

The chains behind the UniProt entries cited, without tags or fusion partners. Where a name states a change or a piece, a line headed by the entry shows the natural chain unless it says otherwise.
UniProt P03870: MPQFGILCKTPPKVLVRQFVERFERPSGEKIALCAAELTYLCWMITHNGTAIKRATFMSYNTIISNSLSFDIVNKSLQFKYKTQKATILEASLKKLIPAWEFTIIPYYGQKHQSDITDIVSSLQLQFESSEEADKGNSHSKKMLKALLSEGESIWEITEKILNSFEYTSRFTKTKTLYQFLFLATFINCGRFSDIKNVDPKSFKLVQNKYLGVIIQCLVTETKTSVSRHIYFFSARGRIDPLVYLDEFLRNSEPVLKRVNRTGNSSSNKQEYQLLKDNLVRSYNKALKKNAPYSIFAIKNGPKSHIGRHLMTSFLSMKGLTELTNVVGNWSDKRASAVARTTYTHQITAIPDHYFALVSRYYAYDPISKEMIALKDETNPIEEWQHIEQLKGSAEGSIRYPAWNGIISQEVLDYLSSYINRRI

Biological target: T1, FLP recombinase (UniProt P03870)
T1 sequence (limits assumed): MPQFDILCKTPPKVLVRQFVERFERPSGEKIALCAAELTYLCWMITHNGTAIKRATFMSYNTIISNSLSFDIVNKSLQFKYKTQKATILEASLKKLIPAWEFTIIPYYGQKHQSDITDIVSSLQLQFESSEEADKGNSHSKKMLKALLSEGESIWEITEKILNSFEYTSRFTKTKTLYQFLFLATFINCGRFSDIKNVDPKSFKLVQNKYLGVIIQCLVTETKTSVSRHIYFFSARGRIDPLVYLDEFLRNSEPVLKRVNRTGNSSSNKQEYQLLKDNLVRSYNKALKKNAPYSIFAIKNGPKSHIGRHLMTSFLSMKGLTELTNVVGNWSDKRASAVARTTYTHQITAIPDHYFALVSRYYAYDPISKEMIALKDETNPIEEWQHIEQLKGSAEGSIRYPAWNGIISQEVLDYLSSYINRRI
Test: activity in cells
Conditions: correct excision (only gntR left); 10 of 60 retained kanR; 1 of 60 lost all resistances; protein in cells; variant of FRTwt; only the site is given

## GAAGTTCCTATTCCGAAGTTCCTATTCTCATATAAGTATAGGAACTTC (double strand) [FRT13]
  activity on this sequence: active
